Results are given in words; binding and its absence hold for the method and conditions named. In cells and extracts the contact can be indirect. Here binding means that the protein was enriched with, or labelled near, the bait; the list need not be complete.
The molecules below were run against FGFR1 WT-BirA*-Flag (human) (UniProt P11362) (assay: proximity labelling).

Amino acid sequences for entries named in this document (tags omitted). Residues count along the entry.
UniProt P22607, residues 23-806: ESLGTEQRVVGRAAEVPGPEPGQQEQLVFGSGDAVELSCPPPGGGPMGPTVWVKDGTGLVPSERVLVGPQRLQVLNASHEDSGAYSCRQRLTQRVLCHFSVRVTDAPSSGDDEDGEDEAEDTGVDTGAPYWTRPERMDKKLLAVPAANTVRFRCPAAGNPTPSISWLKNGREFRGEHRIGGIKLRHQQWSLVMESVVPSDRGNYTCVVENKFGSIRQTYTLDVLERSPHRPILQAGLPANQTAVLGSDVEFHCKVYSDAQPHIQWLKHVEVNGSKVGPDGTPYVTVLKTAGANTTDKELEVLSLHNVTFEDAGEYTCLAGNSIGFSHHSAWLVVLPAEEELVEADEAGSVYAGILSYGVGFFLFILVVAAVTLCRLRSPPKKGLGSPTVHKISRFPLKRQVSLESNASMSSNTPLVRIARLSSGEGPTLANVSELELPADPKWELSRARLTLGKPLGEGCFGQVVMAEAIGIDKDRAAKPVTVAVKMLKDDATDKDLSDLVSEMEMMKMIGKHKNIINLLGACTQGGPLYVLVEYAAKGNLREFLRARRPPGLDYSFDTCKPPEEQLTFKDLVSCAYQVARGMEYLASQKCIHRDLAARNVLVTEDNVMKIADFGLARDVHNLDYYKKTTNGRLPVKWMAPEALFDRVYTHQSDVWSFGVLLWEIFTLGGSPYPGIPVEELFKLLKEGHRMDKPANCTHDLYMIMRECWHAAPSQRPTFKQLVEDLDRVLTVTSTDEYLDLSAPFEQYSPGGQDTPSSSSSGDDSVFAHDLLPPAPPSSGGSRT
UniProt P21802, residues 22-821: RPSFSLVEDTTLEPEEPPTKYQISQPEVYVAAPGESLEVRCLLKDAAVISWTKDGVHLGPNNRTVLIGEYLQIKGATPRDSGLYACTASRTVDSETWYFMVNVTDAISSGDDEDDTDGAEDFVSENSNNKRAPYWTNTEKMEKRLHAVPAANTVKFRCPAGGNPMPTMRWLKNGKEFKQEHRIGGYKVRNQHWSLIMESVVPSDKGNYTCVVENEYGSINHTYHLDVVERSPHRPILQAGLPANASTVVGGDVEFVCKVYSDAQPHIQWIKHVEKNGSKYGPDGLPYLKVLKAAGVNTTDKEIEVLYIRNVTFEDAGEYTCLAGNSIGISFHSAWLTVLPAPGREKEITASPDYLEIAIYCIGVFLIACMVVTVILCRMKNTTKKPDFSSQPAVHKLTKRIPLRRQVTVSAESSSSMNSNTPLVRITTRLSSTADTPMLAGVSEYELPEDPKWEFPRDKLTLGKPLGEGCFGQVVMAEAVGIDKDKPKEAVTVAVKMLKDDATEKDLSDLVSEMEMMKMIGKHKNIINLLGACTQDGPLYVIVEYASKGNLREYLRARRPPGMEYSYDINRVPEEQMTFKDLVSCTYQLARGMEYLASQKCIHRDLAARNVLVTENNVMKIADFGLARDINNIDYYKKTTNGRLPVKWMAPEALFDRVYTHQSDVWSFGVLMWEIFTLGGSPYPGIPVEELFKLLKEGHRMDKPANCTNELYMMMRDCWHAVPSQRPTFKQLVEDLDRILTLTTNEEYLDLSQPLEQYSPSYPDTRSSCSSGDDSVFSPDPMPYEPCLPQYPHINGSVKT

Row | binding | Molecule
1 | binds | FGFR3 (from UniProt P22607 23-806) (receptor)
2 | binds | FGFR2 (from UniProt P21802 22-821) (receptor)
3 | binds | protein tyrosine phosphatase non-receptor type 11 (PTPN11) (from UniProt Q06124 1-593) (enzyme)
4 | binds | fibroblast receptor substrate 2 (FRS2) (protein, UniProt Q8WU20 1-508) MGSCCSCPDKDTVPDNHRNKFKVINVDDDGNELGSGIMELTDTELILYTRKRDSVKWHYLCLRRYGYDSNLFSFESGRRCQTGQGIFAFKCARAEELFNMLQEIMQNNSINVVEEPVVERNNHQTELEVPRTPRTPTTPGFAAQNLPNGYPRYPSFGDASSHPSSRHPSVGSARLPSVGEESTHPLLVAEEQVHTYVNTTGVQEERKNRTSVHVPLEARVSNAESSTPKEEPSSIEDRDPQILLEPEGVKFVLGPTPVQKQLMEKEKLEQLGRDQVSGSGANNTEWDTGYDSDERRDAPSVNKLVYENINGLSIPSASGVRRGRLTSTSTSDTQNINNSAQRRTALLNYENLPSLPPVWEARKLSRDEDDNLGPKTPSLNGYHNNLDPMHNYVNTENVTVPASAHKIEYSRRRDCTPTVFNFDIRRPSLEHRQLNYIQVDLEGGSDSDNPQTPKTPTTPLPQTPTRRTELYAVIDIERTAAMSNLQKALPRDDGTSRKTRHNSTDLPM
